# Screening data, single-dose tests

Amino acid sequences for entries named in this document (tags omitted). Residues count along the entry.
UniProt A4I591, 1-473: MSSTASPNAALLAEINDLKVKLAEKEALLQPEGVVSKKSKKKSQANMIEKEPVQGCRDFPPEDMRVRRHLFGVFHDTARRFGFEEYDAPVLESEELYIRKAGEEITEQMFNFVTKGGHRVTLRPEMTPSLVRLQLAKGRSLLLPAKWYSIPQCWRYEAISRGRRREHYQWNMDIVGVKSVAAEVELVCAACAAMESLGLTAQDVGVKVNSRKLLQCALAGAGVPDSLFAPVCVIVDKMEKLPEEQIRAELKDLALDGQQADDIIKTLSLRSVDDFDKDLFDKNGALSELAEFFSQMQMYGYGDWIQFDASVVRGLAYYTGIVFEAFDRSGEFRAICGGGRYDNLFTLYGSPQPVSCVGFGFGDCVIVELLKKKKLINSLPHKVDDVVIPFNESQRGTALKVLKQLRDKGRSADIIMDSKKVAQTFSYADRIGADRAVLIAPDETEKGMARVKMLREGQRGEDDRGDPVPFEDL
UniProt I6X8D2, whole entry: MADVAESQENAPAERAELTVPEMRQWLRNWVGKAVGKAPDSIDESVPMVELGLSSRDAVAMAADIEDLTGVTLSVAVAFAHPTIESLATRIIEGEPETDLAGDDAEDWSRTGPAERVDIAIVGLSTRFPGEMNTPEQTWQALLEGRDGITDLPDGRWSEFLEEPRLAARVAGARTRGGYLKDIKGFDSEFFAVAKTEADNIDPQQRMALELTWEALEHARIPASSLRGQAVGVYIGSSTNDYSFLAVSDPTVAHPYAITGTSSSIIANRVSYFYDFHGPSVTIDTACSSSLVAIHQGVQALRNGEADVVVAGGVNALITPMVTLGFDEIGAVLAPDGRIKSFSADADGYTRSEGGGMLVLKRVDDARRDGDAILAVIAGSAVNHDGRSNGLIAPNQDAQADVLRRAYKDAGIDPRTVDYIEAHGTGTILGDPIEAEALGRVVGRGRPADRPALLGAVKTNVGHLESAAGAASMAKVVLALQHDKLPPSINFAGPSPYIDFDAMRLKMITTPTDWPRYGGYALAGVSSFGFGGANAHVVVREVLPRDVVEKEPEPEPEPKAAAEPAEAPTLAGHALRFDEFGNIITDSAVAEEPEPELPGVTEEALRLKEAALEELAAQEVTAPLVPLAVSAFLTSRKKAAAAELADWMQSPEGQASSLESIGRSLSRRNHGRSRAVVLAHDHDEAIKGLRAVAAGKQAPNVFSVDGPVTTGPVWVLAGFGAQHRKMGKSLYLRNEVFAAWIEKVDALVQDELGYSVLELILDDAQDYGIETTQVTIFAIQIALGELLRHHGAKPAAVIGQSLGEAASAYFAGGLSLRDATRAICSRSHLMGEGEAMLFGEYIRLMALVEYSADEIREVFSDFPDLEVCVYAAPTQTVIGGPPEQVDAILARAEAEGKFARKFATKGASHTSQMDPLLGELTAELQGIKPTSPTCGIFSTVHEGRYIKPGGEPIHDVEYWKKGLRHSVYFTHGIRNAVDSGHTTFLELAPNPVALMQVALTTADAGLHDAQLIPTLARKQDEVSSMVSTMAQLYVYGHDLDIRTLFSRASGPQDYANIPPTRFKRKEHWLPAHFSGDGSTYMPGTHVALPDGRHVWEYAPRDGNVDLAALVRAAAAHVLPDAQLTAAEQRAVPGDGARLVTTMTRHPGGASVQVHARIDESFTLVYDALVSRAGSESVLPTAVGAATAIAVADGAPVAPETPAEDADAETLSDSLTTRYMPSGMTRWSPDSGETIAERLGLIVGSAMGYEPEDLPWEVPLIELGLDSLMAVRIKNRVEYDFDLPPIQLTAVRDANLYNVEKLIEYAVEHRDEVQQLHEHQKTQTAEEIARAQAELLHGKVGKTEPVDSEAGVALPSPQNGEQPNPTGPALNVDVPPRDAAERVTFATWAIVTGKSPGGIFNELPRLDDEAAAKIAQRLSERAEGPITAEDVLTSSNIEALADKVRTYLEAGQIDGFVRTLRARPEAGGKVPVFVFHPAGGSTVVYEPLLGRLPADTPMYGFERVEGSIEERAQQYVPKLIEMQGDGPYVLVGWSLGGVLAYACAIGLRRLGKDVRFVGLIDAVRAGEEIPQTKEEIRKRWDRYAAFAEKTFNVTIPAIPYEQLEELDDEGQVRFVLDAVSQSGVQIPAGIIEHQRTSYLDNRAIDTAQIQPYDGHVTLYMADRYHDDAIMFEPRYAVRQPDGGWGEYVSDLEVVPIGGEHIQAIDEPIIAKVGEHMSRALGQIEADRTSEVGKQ

LiHisRS: 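Histidine-tRNA ligase, Leishmania infantum (UniProt A4I591). Enzyme assay of histidyl-tRNA synthetase; the read-out is not stated. Tested at 30 µM. Direction is inferred from retests: higher values go with stronger inhibition. The assay is labelled LdHisRS but filed under L. infantum. Of about 69,000 compounds tested this way, about 410 (0.6%) reached 50% or more in at least one test.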
Pks13 thioesterase: 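Enzyme assay of the thioesterase domain of polyketide synthase 13; the read-out is not stated. Target: Polyketide synthase Pks13, Mycobacterium tuberculosis (UniProt I6X8D2). Concentration: 30 µM. Higher reads as stronger inhibition (inferred from which compounds were picked for retests). About 67,000 compounds were tested under these conditions; 0.46% (about 300) showed 50% or more at least once.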

Each number is a percent effect as filed.
The controls that fix the scale are not given in the record; negative values are as filed.
Compounds were drawn at random from those tested, without regard to their results.
A dash means the value is not listed here; it may have been measured.

SMILES,LiHisRS,Pks13 thioesterase
Cc1cc(C2CCCN(CCCNS(C)(=O)=O)C2)n[nH]1 (stereo not shown),-37.08,-25.68
CCOC(=O)CC1CCCCN1C(=O)c1cc(C)oc1C (stereo not shown),8,-0.1445
CN1CC(=O)N(c2cnn(C)c2)CC12CCN(Cc1nccn1C)C2 (stereo not shown),9.524,2.479
N#Cc1ccc(SCCC(=O)O)cc1,1.961,6.002
CCC1(c2ccc(NS(=O)(=O)c3ccc(Cl)s3)cc2)CCC(=O)NC1=O (stereo not shown),0.8929,-11.94
CC(NS(C)(=O)=O)C(=O)N(C)Cc1csc(-c2cccs2)n1 (stereo not shown),8,4.724
Cn1ccnc1-c1noc(NCc2ccc(Cl)cc2)n1,19.15,-10.5
Cc1oc(C(C)C)cc1C(=O)N1CCN(c2cnn(C)c(=O)c2)CC1,9.6,12.37
CCCS(=O)(=O)N1CCC2(CCN(Cc3cccc(F)c3)C2=O)C1 (stereo not shown),0,0.03471
NCc1ccnc(Oc2ccc(F)cc2)c1,30.12,24.69
O=C(Nc1ccccc1)NC1CCN(C2CCOC2)CC1 (stereo not shown),7.563,-
O=C([C@@H]1CC[C@@H]2[C@@H](CCN2Cc2cccc(F)c2)O1)N1CCCCO1,7.547,-8.014
CCn1nccc1CN(C)c1nc(N)nc2c1nc(C)n2C,0,-8.385
CC(C)CNC(=O)C1=NOC2(CCN(Cc3cccc(C#N)c3)C2)C1 (stereo not shown),-1.887,2.592
CC1CN(C(=O)c2ccnc(OCCN(C)C)c2)c2ccccc21 (stereo not shown),3.333,-21.84
Cc1cnccc1-c1cnn(CCNC(=O)C(C)(C)C)c1C1CC1,4.255,0.2254
O=C1NCCCC[C@@H]1Nc1ccc(-c2nc(C3CC3)no2)cn1,-1.493,-27.99
CCCNC(=O)C1CCN(Cc2csc(C(C)C)n2)CC1,-13.56,-19.33
O=S(=O)(C1CC1)N1CC[C@H](OCC2CC2)[C@@H]1Cc1cccnc1,10.53,-31.4
COc1cccc(CN(Cc2ccco2)Cc2[nH]cnc2C)c1,0,-8.292
N#Cc1ccccc1N1CCCN(C(=O)CCc2cccs2)CC1,10.71,-16.77
Cc1cc(CN2C[C@H]3CCC[C@@]3(COCC(=O)N3CCCC3)C2)no1,2.632,-
O=C1CC(c2ccccc2)C2(CCN(Cc3ccncc3)CC2)N1 (stereo not shown),12.73,5.818
Cc1ccc(C(=O)N2CCC3(CCC(=O)N(CC(C)O)C3)CC2)c(O)c1 (stereo not shown),11.11,7.001
COCCN1CCOCC12CCN(c1ccc(C#N)cc1)CC2,22.41,-5.937
Cc1noc(C)c1CN1CCC(N(C)Cc2nnc(C3CC3)n2C)C1 (stereo not shown),1.786,4.021
O=C(Nc1ccc(CC(=O)N2CCCC2)cc1)NC1CC1,26.09,-5.591
CC(C)c1nsc(N2CCCOCC2)n1,3.614,5.978
Cc1cc(C)n(CC2(CNC(=O)C(c3ccc(F)cc3)N(C)C)CC2)n1 (stereo not shown),15.49,-17.6
CC(c1ccco1)N(C)Cc1cccc(C(=O)Nc2nccn2C)c1 (stereo not shown),15.22,-10.36
CC(C(=O)N1CCN(Cc2ccncc2)CC1)n1cncn1 (stereo not shown),15.29,-14.54
O=C(N[C@@H]1CNCCC[C@H]1O)c1ccc(OCCN2CCOCC2)cc1,16.67,-31.49
CN(Cc1nnc(C2CC2)n1C)C1CCN(Cc2ccccc2)C1 (stereo not shown),-64.52,-11.52
CCOC(=O)COc1ccc(C(C)=O)c(O)c1,0,-26.7
Cc1nc(CN2CCn3cc(CNC(=O)C4CCC4)nc3C2)cs1,24.53,8.826
COC(=O)CN1CCC(C(=O)c2cc(F)ccc2F)CC1,29.09,5.968
CC(C)(C)C(=O)N1CCCC1c1nc(O)cc(-c2ccccn2)n1 (stereo not shown),22.22,-32.62
O[C@@]1(CN2CCN(Cc3ccncc3)CC2)CCCN2CCCC[C@@H]21,20,-45.49
CCN(CC)c1nc(Nc2cccc(C(=O)O)c2)nc2ccccc12,25.93,3.92
Cn1ncc2c1CN(Cc1ccccc1F)CC2COCC1CC1 (stereo not shown),17.74,-9.38
Cn1cc(CN2CCCC(O)C2)c(-c2ccccc2F)n1 (stereo not shown),5,-3.749
CCN1CC2(CCNCC2)COc2ccccc2S1(=O)=O,11.65,-18.33
Cc1cc(C)n(CCCC(=O)N2CCc3ncc(Cl)cc3C2)n1,3.158,-28.13
CN1CCC(c2n[nH]c3ncccc23)C1 (stereo not shown),10.34,6.524
CN(C)Cc1ccc(C(N)=O)cc1NC(=O)c1cccc(C#N)c1,29.58,-45.04
CCN(CCN1CCCCCC1)C(=O)c1cnc(-c2cccnc2)nc1,17.14,-13.6
CC(=O)N1CCC(c2nc3ccc(-c4ccnn4C)cn3n2)CC1,6.944,-19.57
O=C(NS(=O)(=O)c1ccc(C2CCCCC2)cc1)C1COCCO1 (stereo not shown),14.29,1.212
COCCN1C[C@@H]2[C@@H](OC)CCN(Cc3cccs3)[C@@H]2C1,12.9,-29.65
CN(C)Cc1nc(C(=O)N2CCCC(COc3ccc(F)cc3)C2)cs1 (stereo not shown),15,-20.58
COc1ccc(Cl)cc1NCC(=O)N(Cc1ccccn1)C1CC1,10.99,-43.03
N#Cc1cccc(N2CCC3(CCC(=O)N(CCCO)C3)CC2)n1,18.03,-0.03045
COC[C@@]12CCO[C@@H]1CCN(C(=O)C1CC(F)(F)C1)C2,18,-15.21
CCc1nnc(NC(=O)NCCN(C)C(=O)OC(C)(C)C)s1,8.29,-17.58
CSc1ccc(C(CC(=O)O)NC(=O)c2cc(C)on2)cc1 (stereo not shown),16.13,-
c1ccc(-c2noc(CN3CCC(c4ccn[nH]4)CC3)n2)cc1,17.31,1.741
COc1cccc(NC(=O)NCC(Cc2cnn(C)c2)C(N)=O)c1 (stereo not shown),4.274,-37.02
COc1ccc(-n2nc(C)c(C(C)=O)c2C)cc1CO,22.67,-24.85
c1cnn(CCCO[C@@H]2CN(C3CCOCC3)[C@@H]3CCCO[C@@H]32)c1,15.28,-17.87
CCCN(CC)C(=O)c1cc2c(c3ccccc3n2C)n1C(=O)N(C)C,25.49,3.023

Once more, the final 3:

{"smiles": "COc1ccc(-n2nc(C)c(C(C)=O)c2C)cc1CO", "LiHisRS": 22.67, "Pks13 thioesterase": -24.85}
{"smiles": "c1cnn(CCCO[C@@H]2CN(C3CCOCC3)[C@@H]3CCCO[C@@H]32)c1", "LiHisRS": 15.28, "Pks13 thioesterase": -17.87}
{"smiles": "CCCN(CC)C(=O)c1cc2c(c3ccccc3n2C)n1C(=O)N(C)C", "LiHisRS": 25.49, "Pks13 thioesterase": 3.023}

Data taken from ChEMBL document CHEMBL3988442, “University of Dundee, Small-Polar-MMV Screening Library” (2021).